Measured values taken from patent US20090028851A1 (MAXPLANCK GESELLSCHAFT ZUR F RDERUNG DER WISSENSCH, published 2009).
Results are given in words; binding and its absence hold for the method and conditions named. Some binding calls cover weakened binding; strength is not graded here.

Columns and labels:
Assay in all cases: SPOT peptide membrane, ECL
[1] = biological target: T1, SPOT peptide 24, …
T1 sequence (peptide): GSGKWEGGPSKNS

[2] = biological target: T2, SPOT peptide 22, …
T2 sequence (peptide): FNGSGSGKWEGGP

[3] = biological target: T3, SPOT peptide 23, …
T3 sequence (peptide): GSGSGKWEGGPSK

[4] = biological target: T4, SPOT peptide 21, …
T4 sequence (peptide): YQFNGSGSGKWEG

Measured: binding

B1: mouse monoclonal anti-Eag1 antibody ImAb5 (antibody, mouse IgG2b, V domains shown)
VH: EVKLVESGGGLVQPGGSLRLSCATSGFTFTDYYMSWVRQPPGKALEWLGFIRNKATGYTTEYSASVKGRFTISRDNSQSILYLQMNTLRAEDSATYYCARDTAATWYFDVWGAGTTVTVSS
VL: DIVMSQSPSSLAVSAGEKVTMSCKSSQSLLNSRTRKNYLAWYQQKPGQSPKLLIYWASTRESGVPDRFTGSGSGTDFTLTISSVQAEDLAVYYCKQSYDLRTFGGGTKLEIKR
binds: all assays above
